# Measurements taken from article PMC5605516.
# By UniProt entry, the sequences of proteins in these tests, tags left out.
# UniProt Q7Z434: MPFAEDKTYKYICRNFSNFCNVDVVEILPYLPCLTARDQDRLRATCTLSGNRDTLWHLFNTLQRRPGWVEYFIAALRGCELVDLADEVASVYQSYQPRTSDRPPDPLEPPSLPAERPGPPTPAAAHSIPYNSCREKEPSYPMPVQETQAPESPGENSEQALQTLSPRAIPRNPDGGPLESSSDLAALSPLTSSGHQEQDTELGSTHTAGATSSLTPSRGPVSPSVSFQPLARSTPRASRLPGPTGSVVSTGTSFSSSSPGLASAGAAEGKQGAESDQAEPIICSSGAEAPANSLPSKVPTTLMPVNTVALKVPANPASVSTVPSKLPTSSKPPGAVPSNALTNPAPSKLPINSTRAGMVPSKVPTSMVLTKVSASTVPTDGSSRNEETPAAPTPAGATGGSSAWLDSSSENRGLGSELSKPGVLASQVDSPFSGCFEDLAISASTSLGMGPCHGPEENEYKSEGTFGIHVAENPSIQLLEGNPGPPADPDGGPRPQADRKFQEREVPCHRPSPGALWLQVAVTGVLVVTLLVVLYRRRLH
# These are yes or no findings as the source states them, for the method shown. In cells and extracts the contact can be indirect. Some results given as binding are weak or reduced against the parent protein; the word gives no strength. For part of these data: Where a sequence is shown, tags or fusion partners need not be part of it.
# T1: FLAG-tagged MDA5 (UniProt Q9BYX4)
# T1 sequence: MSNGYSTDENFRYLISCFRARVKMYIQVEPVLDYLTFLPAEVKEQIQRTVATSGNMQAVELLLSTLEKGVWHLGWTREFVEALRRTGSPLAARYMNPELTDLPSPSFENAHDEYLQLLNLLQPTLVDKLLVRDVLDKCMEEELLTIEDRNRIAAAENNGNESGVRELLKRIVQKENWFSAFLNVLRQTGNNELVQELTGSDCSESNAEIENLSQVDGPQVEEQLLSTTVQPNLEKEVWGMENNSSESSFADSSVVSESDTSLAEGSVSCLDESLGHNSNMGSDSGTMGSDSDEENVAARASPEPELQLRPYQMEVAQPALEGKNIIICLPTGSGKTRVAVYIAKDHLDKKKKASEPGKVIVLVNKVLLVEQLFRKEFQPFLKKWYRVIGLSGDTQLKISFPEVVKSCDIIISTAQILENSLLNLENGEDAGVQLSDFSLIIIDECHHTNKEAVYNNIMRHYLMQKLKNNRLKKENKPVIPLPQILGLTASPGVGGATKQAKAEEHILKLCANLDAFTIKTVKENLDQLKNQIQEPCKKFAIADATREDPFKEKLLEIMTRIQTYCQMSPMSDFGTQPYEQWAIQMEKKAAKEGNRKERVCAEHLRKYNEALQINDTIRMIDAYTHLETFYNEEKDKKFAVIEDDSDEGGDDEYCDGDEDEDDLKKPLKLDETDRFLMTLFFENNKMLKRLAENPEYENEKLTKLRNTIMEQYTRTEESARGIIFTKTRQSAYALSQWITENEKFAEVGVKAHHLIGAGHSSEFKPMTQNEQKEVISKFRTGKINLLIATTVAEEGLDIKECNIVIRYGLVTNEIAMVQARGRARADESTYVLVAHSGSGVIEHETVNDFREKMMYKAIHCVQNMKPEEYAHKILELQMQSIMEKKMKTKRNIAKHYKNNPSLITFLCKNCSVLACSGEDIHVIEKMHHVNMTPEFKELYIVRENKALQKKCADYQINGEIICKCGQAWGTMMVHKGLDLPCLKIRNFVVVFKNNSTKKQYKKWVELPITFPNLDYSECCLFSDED
# T2: FLAG-tagged RIG-I (UniProt O95786)
# T2 sequence: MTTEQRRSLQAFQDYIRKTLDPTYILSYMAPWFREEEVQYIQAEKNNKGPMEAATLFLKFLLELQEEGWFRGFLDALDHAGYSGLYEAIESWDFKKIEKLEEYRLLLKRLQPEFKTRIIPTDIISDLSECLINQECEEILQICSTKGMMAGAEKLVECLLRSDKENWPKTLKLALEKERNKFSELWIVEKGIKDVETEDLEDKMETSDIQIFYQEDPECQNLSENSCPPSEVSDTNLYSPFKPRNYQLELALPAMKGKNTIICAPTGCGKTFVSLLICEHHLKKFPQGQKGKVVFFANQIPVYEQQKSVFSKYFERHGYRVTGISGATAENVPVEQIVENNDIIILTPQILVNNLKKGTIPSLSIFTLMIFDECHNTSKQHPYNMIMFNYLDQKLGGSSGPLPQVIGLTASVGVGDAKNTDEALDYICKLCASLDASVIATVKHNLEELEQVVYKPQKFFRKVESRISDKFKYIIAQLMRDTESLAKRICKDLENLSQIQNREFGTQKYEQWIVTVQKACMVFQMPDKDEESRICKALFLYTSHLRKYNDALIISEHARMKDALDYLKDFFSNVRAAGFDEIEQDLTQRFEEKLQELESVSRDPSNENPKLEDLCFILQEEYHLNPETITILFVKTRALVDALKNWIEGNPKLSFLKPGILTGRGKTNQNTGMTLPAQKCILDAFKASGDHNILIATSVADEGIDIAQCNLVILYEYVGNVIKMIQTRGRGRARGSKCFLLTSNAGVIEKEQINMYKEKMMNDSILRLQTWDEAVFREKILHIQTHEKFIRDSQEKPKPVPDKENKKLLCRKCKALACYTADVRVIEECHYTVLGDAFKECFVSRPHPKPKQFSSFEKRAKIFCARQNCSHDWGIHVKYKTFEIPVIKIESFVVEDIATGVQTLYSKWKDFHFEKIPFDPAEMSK
# Assays:
# FLAG-tagged MAVS [1] = biological target: FLAG-tagged MAVS (UniProt Q7Z434); assay: proximity ligation; HeLa or THP-1 cells transfected with FLAG-MAVS and Zyxin-HA, fixed, anti-FLAG and anti-HA antibodies, Duolink in situ PLA kit, confocal microscopy
# FLAG-tagged MDA5 = biological target: T1, FLAG-tagged MDA5; assay: co-IP
# FLAG-tagged MAVS [2] = biological target: FLAG-tagged MAVS (UniProt Q7Z434); assay: co-IP
# FLAG-tagged RIG-I = biological target: T2, FLAG-tagged RIG-I; assay: co-IP
# [3] = biological target: endogenous MAVS (human (endogenous in HEK293FT)) (UniProt Q7Z434); assay: co-IP; endogenous proteins of HEK293FT lysate, mock or 5'-pppRNA transfected for 6 h; IP with anti-MAVS antibody or control IgG, blots with anti-MAVS and anti-zyxin
binding (FLAG-tagged MAVS [1]),binding (FLAG-tagged MDA5),binding (FLAG-tagged MAVS [2]),binding (FLAG-tagged RIG-I),binding [3],Binder
binds,binds,binds,binds,–,"HA-tagged zyxin, full length (protein, UniProt Q15942 1-572) MAAPRPSPAISVSVSAPAFYAPQKKFGPVVAPKPKVNPFRPGDSEPPPAPGAQRAQMGRVGEIPPPPPEDFPLPPPPLAGDGDDAEGALGGAFPPPPPPIEESFPPAPLEEEIFPSPPPPPEEEGGPEAPIPPPPQPREKVSSIDLEIDSLSSLLDDMTKNDPFKARVSSGYVPPPVATPFSSKSSTKPAAGGTAPLPPWKSPSSSQPLPQVPAPAQSQTQFHVQPQPQPKPQVQLHVQSQTQPVSLANTQPRGPPASSPAPAPKFSPVTPKFTPVASKFSPGAPGGSGSQPNQKLGHPEALSAGTGSPQPPSFTYAQQREKPRVQEKQHPVPPPAQNQNQVRSPGAPGPLTLKEVEELEQLTQQLMQDMEHPQRQNVAVNELCGRCHQPLARAQPAVRALGQLFHIACFTCHQCAQQLQGQQFYSLEGAPYCEGCYTDTLEKCNTCGEPITDRMLRATGKAYHPHCFTCVVCARPLEGTSFIVDQANRPHCVPDYHKQYAPRCSVCSEPIMPEPGRDETVRVVALDKNFHMKCYKCEDCGKPLSIEADDNGCFPLDGHVLCRKCHTARAQT"
–,–,binds,–,binds,"endogenous zyxin (protein, UniProt Q15942 1-572) MAAPRPSPAISVSVSAPAFYAPQKKFGPVVAPKPKVNPFRPGDSEPPPAPGAQRAQMGRVGEIPPPPPEDFPLPPPPLAGDGDDAEGALGGAFPPPPPPIEESFPPAPLEEEIFPSPPPPPEEEGGPEAPIPPPPQPREKVSSIDLEIDSLSSLLDDMTKNDPFKARVSSGYVPPPVATPFSSKSSTKPAAGGTAPLPPWKSPSSSQPLPQVPAPAQSQTQFHVQPQPQPKPQVQLHVQSQTQPVSLANTQPRGPPASSPAPAPKFSPVTPKFTPVASKFSPGAPGGSGSQPNQKLGHPEALSAGTGSPQPPSFTYAQQREKPRVQEKQHPVPPPAQNQNQVRSPGAPGPLTLKEVEELEQLTQQLMQDMEHPQRQNVAVNELCGRCHQPLARAQPAVRALGQLFHIACFTCHQCAQQLQGQQFYSLEGAPYCEGCYTDTLEKCNTCGEPITDRMLRATGKAYHPHCFTCVVCARPLEGTSFIVDQANRPHCVPDYHKQYAPRCSVCSEPIMPEPGRDETVRVVALDKNFHMKCYKCEDCGKPLSIEADDNGCFPLDGHVLCRKCHTARAQT"
